Results are given in words; binding and its absence hold for the method and conditions named. Binding seen in cells or lysates may run through a third protein. Binding calls can cover weak binding; strength is not graded here. Blank lines part the entries; values can stand above or below the binder they belong to.
How the values were obtained:
[1] = target: Endogenous Stardust (Sdt) of Drosophila embryos (Drosophila (endogenous in embryos)); test: co-IP; lysate of w- embryos (1% Triton X-100, 150 mM NaCl, 1 mM CaCl2, 1 mM MgCl2, 50 mM Tris-HCl pH 7.5); IP with mouse anti Sdt, control IP with anti β-galactosidase; protein A/G agarose, western blot
[2] = target: Sdt-GFP (Ubi::Sdt-GFP), expressed in Drosophila embryos (Drosophila); test: co-IP; lysate of embryos expressing GFP-tagged Sdt variants (Ubi::Sdt-GFP); IP with rabbit anti GFP, protein A/G agarose; bound endogenous proteins by western blot
[3] = target: SdtΔPDZ-GFP, expressed in Drosophila embryos (Drosophila); test: as above
[4] = target: SdtΔSH3-GFP, expressed in Drosophila embryos (Drosophila); test: as above

binding [1]: no binding
B1: Endogenous PAR-6 of Drosophila embryos (protein, UniProt O97111 1-351)
chain: MSKNKINTTSATAASDTNLIEVKSKFDAEFRRWSFKRNEAEQSFDKFASLIEQLHKLTNIQFLILYIDPRDNDLLPINNDDNFGRALKTARPLLRVIVQRKDDLNEYSGFGTMKPRNLIGSILMGHTPVKTKAPSISIPHDFRQVSAIIDVDIVPETHRRVRLLKHGSDKPLGFYIRDGTSVRVTASGLEKQPGIFISRLVPGGLAESTGLLAVNDEVIEVNGIEVAGKTLDQVTDMMVANSSNLIITVKPANQRTLTSTHRGSFSRNSQLSSGSHHTNNTNTSDEIEHDDQDDIVDLTGVTLDESPTSTSAGNHNHQPPLSSSPSSHHQQAASNASTIMASDVKDGVLHL

binding [2]: binds
binding [3]: binds
binding [4]: binds
binding [1]: binds
B2: Endogenous PATJ of Drosophila embryos (protein, UniProt Q9NB04 1-871)
chain: MHLSADISSALQQIEAVKKGIDESDDPKLQMQTAESLSTILGILQDPVFRTIVHVQDSLSELNAQLAQHPSMLPNDFDIDVAGNLVLSLNGGEVMYDFDEQRSSSHSHSAPGSPDKSGGVGEEPRPQSQNSKGAGVADLYATDYAQIQAIELVNDGTGLGFGIIGARNSGVIVKTILPGGVADKDGRLRSGDHILQIGDVNLHEMVSEQVAAVLRQSGTHVRLVVARPVEQSVPTPQYALEPGTAVVPTRVLVDPAELERYLISTGYPEIFGESSTASTPQTTTEDDRFVYRGETSMLIDPNIDLEELLALPETEKLQVELKKDANGLGITIAGYVCEKEELSGIFVKSVSPGSAADLSGRIRVNDRIIEVDGQSLQGYSNHQAVELLKKSGQVVNLRLERYLRGPKFEQLQQAIAANDKLPSSAPGTPSRAPMPTPVATTSSATTTPSRSITRELEEEALPAPEAFMTTPPSVTTMTTTTLSSFGAGKQLVAVRDSLDGSTKIIPTEVVPLADKTEAKNSGVITRHKYYTDPELSDDAETEIIRKWQKIVGSDVEVIVAQIKKFAVGGLGISLEGTVDVEGGREVRPHHYIRSILPDGPVGVNGVLRSGDELLEVNGERLLGMNHLEVVAILKELPLDVRMVCGRNRNSSLLPFSDDTLKKLSNNFENLLPATDRLVKAKSDGSLATAGSVADGDSVAAAAASFSKLKSRSLEPLTGLAMWSSQPQIIELVKGDRGLGFSILDYQDPLDPNDTLIVIRSLVPGGVAQLDGRLIPGDRLLFVNSINLENASLDQAVQALKGASKGVVRIGVAKPLPMTDNSLKACSNASTTSEETLDAQPSPPALPTVAPPAMPPSASMGAEPDLIPDWRN

binding [1]: binds
B3: Endogenous aPKC (atypical protein kinase C) of Drosophila embryos (enzyme, UniProt A1Z9X0 1-606)
chain: MQKMPSQILNDGSSVSLNSASMNMANTPNSITVKTAYNGQIIITTINKNISYEELCYEIRNICRFPLDQPFTIKWVDEENDPCTISTKMELDEAIRLYEMNFDSQLVIHVFPNVPQAPGLSCDGEDRSIYRRGARRWRKLYRVNGHIFQAKRFNRRAFCAYCQDRIWGLGRQGFKCIQCKLLVHKKCHKLVQKHCTDQPEPLVKERAEESSDPIPVPLPPLPYEAMSGGAEACETHDHAHIVAPPPPEDPLEPGTQRQYSLNDFELIRVIGRGSYAKVLMVELRRTRRIYAMKVIKKALVTDDEDIDWVQTEKHVFETASNHPFLVGLHSCFQTPSRLFFVIEFVRGGDLMYHMQRQRRLPEEHARFYAAEISLALNFLHEKGIIYRDLKLDNVLLDHEGHIKLTDYGMCKEGIRPGDTTSTFCGTPNYIAPEILRGEDYGFSVDWWALGVLLYEMLAGRSPFDLAGASENPDQNTEDYLFQVILEKTIRIPRSLSVRAASVLKGFLNKNPADRLGCHRESAFMDIVSHPFFKNMDWELLERKQVTPPFKPRLDSDRDLANFPPEFTGEAVQLTPDDDHVIDNIDQSEFEGFEYVNPLLMSLEDCV

Reference: PMC5180163
